Some entries share one result that the patent states for a list of compounds.
Experiment: Determination of the in-vitro SPF on PMMA plates (Labsphere UV-200S, Colipa method)
Format: physicochemical
Conditions: sunscreen product, cosmetic or pharmaceutical preparation or homecare product; amount not stated
Protocol: Determination of the in-vitro SPFs and UVA-PF
The SPF boosting and UVA-PF boosting test is carried out as in-vitro determination of SPFs.
Principle: The formulation to be tested (emulsion, solution) is weighed on PMMA plates with the help of an analytical balance. The formulation if distributed and incorporated on the plate using a method corresponding to the formulation. The thus prepared plates are then measured on a Labsphere device and the results are calculated as SPF with a suitable software.
PMMA plates (Polymethylmethacrylate), measuring 3 cm×8.5 cm (WVVW5 plates based on […] “Determination of UVA photoprotection in vitro” with 5μ roughness by Schonberg GmbH & Co. AG) are used to perform an SPF measurement.
A reference sample is obtained by distributing 25 to 28 mg glycerin (99.5%) with the index finger on the roughened side of the PMMA plate. The glycerin film must be very thin and uniform. Subsequently, this plate is stored for at least 2 hours.
The reference plate is measured with the following transmission values:
The sample to be measured should be homogeneously mixed with a spatula before application. 1.2 mg/cm2 of sample is evenly distributed in several rows of dots on the PMMA plate. In order to minimise the evaporation of the sample during weighing, this process must be carried out quickly. The sample is then evenly distributed by hand with a finger previously saturated with the sample material. The distribution takes place in two phases: • Phase 1: Fast and uniform distribution with a slight pressure until the emulsion is broken. • Phase 2: The sample is massaged into the rough surface with strong pressure and the process should last 30 seconds. In this context under strong pressure means that when massaged on a scale, this indicates at least […].
Sun oils: The product quantity is generally 1.3 mg/cm^2. For strongly spreading oils, less product is applied, as the amount of oil cannot be “absorbed” from the plate. Then the amount of application should be reduced to 1.0-0.75 mg/cm^2. Application method here is also the 30 s fast/light and 30 s strong method. • Sun sprays: The “30/30 method” applies here (especially for thicker sprays). • For very liquid sprays (similar to water): • Fast and uniform distribution with a slight pressure, until the emulsion “breaks”. • The process should take 45 s.
The finished sample plates are stored dust-free and measured at the earliest after 15 minutes.
The samples are measured using the UV-200S device, using the specified Colipa method. The Labsphere user manual also applies.
A new “Study” is opened via File and then the “Colipa Guideline 2011” method is selected under the heading “Study”. In the new window “Colipa Method Options” the number of plates (3 plates), the measuring points per plate (5 measuring points) and the in vivo SPF and, if necessary, the irradiance intensity of the external irradiance device (Solar Simulator Irradiance) entered. • The irradiance set on the external device is 765 W/m2 as standard. The complete naming of the sample is done via Study”, “Study Information”.
At the beginning of the measurement, a blank value of the glycerin reference sample is measured (“scan blank plate”). In order to determine the SPF of a sample, a total of 15 measuring points (3 plates of 5 measuring points) are then created (“Scan Location”).
• After the first measurement run, the device calculates an irradiation dose (Irradiation Dose/J/cm2) and the duration (exposure time) for each plate. The plates are irradiated in the external irradiation device (irradiation duration=average value of the 3 plates).
The calculation of irradiation dose and exposure time is based on the irradiance (765 W/m^2) set on the external device. […]

Compound	increase in SPF compared to the product without the mycosporine-like amino acid compound
CC1(C)CC(NCC(=O)O)=C/C(=N/c2ccc(-c3ccccc3)cc2)C1 [MAA-7, 3-([1,1′-biphenyl]-4-ylimino)-5,5-dimethylcyclohex-1-en-1-yl-glycine]	at least 10%
CCOC(=O)CNC1=C/C(=N/c2ccc(-c3ccccc3)cc2)CC(C)(C)C1 [MAA-6, ethyl 2-((3-([1,1′-biphenyl]-4-ylimino)-5,5-dimethylcyclohex-1-en-1.yl)amino)acetate]	at least 10%

Reference: patent publication US20260034042A1, “Composition with Improved SPF and UVA Photoprotection” (Symrise AG, priority 2022, published 2026)
